Laboratory results published in paper PMC5472717.
The exact form of at least one protein or probe is not confirmed.

System: Zur (zinc uptake regulator)
Assay: EMSA
Conditions: 90 nM Zur, 20 mM Tris-HCl pH 7.8, 50 mM KCl, 1 mM DTT, 0.1 mg/ml BSA, 5% glycerol, 0.1 ug poly(dI-dC) per 20 ul, 0-20 uM ZnSO4, room temperature 20 min, gel 5% PAGE in TB at 4 C, recombinant protein, label: 32P

Row | Sequence | binding result (up to 20 uM Zn, dimer and tetramer complexes, letters put together from the description) | binding result (20 uM Zn, single dimer complex)
1 | CAAGGCACATGACAACGGTGTTCAGTGCCGCGT (double strand) [zitB 33 bp probe (-67 to -35)] | binds | –
2 | GCACATGACAACGGTGTTCAGTGCC (double strand) [zitB 25 bp Zur-box probe (-63 to -39)] | – | binds
